{"source": "PubChem BioAssay AID602196 (INSERM, 2012)", "screen": "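Genes whose knock-down alters cisplatin killing of lung cancer cells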", "cell system": "human A549 lung cancer cells", "knock-down reagent": "siRNA pair against human genes", "duration": "48 h transfection before cisplatin; time from cisplatin to read-out not stated", "treatment": "cisplatin at a dose killing half of control-siRNA cells; exact dose and duration not given", "detection": "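Cisplatin cell death as a shift from the 50% death seen with control siRNA; siRNAs toxic or growth-blocking alone scored 0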", "scale": "two-siRNA summed score (-2 to +2): higher = both siRNAs protect from cisplatin killing; -2 means both sensitise", "rule for the call": "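Each siRNA scores 0 if harmful alone by LDH or WST-1, otherwise +1 if it reduces and -1 if it increases cisplatin killing; a gene is active when both siRNAs agree (sum +2 or -2)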", "meaning of the calls": "active = both siRNAs shift cisplatin killing the same way; inactive = no consistent shift, or siRNA harmful alone", "note": "Here is a random part of about 23,000 reagents. 455 of all reagents (2%) count as active. 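Active includes both protection and sensitisation; some change values fall well beyond the stated -50 to +50 range.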 Reagents against one gene are numbered here. Further read-outs or replicates are left out here. The record does not give: the amount of reagent."}
The opening 2 entries as a preview:
{"gene": "CPXCR1 (CPX chromosome region candidate 1)", "reagent": 1, "two-siRNA summed score (-2 to +2)": 0, "Call": "inactive"}
{"gene": "OR6N1 (olfactory receptor family 6 subfamily N member 1)", "reagent": 1, "two-siRNA summed score (-2 to +2)": 1, "Call": "inactive"}

Main list, repeating the preview:
{"gene": "CPXCR1 (CPX chromosome region candidate 1)", "reagent": 1, "two-siRNA summed score (-2 to +2)": 0, "Call": "inactive"}
{"gene": "OR6N1 (olfactory receptor family 6 subfamily N member 1)", "reagent": 1, "two-siRNA summed score (-2 to +2)": 1, "Call": "inactive"}
{"gene": "ASAP1 (ArfGAP with SH3 domain, ankyrin repeat and PH domain 1)", "reagent": 1, "two-siRNA summed score (-2 to +2)": 0, "Call": "inactive"}
{"gene": "DNAJA4 (DnaJ heat shock protein family (Hsp40) member A4)", "reagent": 1, "two-siRNA summed score (-2 to +2)": 0, "Call": "inactive"}
{"gene": "PTPRN (protein tyrosine phosphatase receptor type N)", "reagent": 1, "two-siRNA summed score (-2 to +2)": 0, "Call": "inactive"}
{"gene": "TYMS (thymidylate synthetase)", "reagent": 1, "two-siRNA summed score (-2 to +2)": 0, "Call": "inactive"}
{"gene": "TNNC2 (troponin C2, fast skeletal type)", "reagent": 1, "two-siRNA summed score (-2 to +2)": 0, "Call": "inactive"}
{"gene": "YES1 (YES proto-oncogene 1, Src family tyrosine kinase)", "reagent": 1, "two-siRNA summed score (-2 to +2)": 0, "Call": "inactive"}
{"gene": "UCK1 (uridine-cytidine kinase 1)", "reagent": 1, "two-siRNA summed score (-2 to +2)": 0, "Call": "inactive"}
{"gene": "INTS9 (integrator complex subunit 9)", "reagent": 1, "two-siRNA summed score (-2 to +2)": 0, "Call": "inactive"}
{"gene": "GDF15 (growth differentiation factor 15)", "reagent": 1, "two-siRNA summed score (-2 to +2)": 0, "Call": "inactive"}
{"gene": "TMF1 (TATA element modulatory factor 1)", "reagent": 1, "two-siRNA summed score (-2 to +2)": -1, "Call": "inactive"}
{"gene": "CGA (glycoprotein hormones, alpha polypeptide)", "reagent": 1, "two-siRNA summed score (-2 to +2)": 0, "Call": "inactive"}
{"gene": "CGA (glycoprotein hormones, alpha polypeptide)", "reagent": 2, "two-siRNA summed score (-2 to +2)": 0, "Call": "inactive"}
{"gene": "GYPE (glycophorin E (MNS blood group))", "reagent": 1, "two-siRNA summed score (-2 to +2)": 0, "Call": "inactive"}
{"gene": "H4C16 (H4 histone 16)", "reagent": 1, "two-siRNA summed score (-2 to +2)": 0, "Call": "inactive"}
{"gene": "VMO1 (vitelline membrane outer layer 1 homolog)", "reagent": 1, "two-siRNA summed score (-2 to +2)": 0, "Call": "inactive"}
{"gene": "RAB26 (RAB26, member RAS oncogene family)", "reagent": 1, "two-siRNA summed score (-2 to +2)": 0, "Call": "inactive"}
{"gene": "CASP7 (caspase 7)", "reagent": 1, "two-siRNA summed score (-2 to +2)": 1, "Call": "inactive"}
{"gene": "LOC343381", "reagent": 1, "two-siRNA summed score (-2 to +2)": 0, "Call": "inactive"}
{"gene": "CST1 (cystatin SN)", "reagent": 1, "two-siRNA summed score (-2 to +2)": -1, "Call": "inactive"}
